These are yes or no findings as the source states them, for the method shown. Tags and fused reporters may be left off the sequences shown.
Target: TTP1 without transit peptide, split-ubiquitin yeast two-hybrid fusion (Arabidopsis)
Experiment: two-hybrid; split-ubiquitin yeast two-hybrid; proteins without transit peptide; bait vector pDHB1MCS2, prey vector met25pXCgate; selection without histidine, uracil, leucine and tryptophan, 20 mM 3-aminotriazole, 3 d at 30 °C

B1: FLU without transit peptide, split-ubiquitin yeast two-hybrid fusion (protein, UniProt Q940U6 27-316)
chain: APEIGKFATSIGYSVVRKPGDHPPFSKIIHSSSQPKERQGKGILQTPFASVGSLDKFSAFEGIGRLKLPVMAVLLTNSLQMATPLEALAAEICEPESSMFSMPILLLVALIGATVGGLLARQRKGELQRLNEQLRQINAALRRQAKIESYAPSLSYAPVGARIPDSEIIVEPKKQELISKLKTGKTFLRNQEPEKAYTEFKIALELAQSLKDPTEEKKAARGLGASLQRQGKYREAIQYHSMVLAISKRESEDSGITEAYGAIADCYTELGDLEKAGKFYDTYIARLETD
With B1 the binding was “no binding”.

Source: publication PMC10967246
